The other results are listed elsewhere or left out.
target: T1, OsSMF1 (Oryza sativa, UniProt Q6ZLB0 1-436); test: protein-binding microarray (RPBM); PBS, 2% BSA, 51.3 ng/ul salmon testes DNA, 50 uM zinc acetate, 200 nM TF, 25 C, 1 h; high values mean tight binding; conditions: protein: recombinant; tags: N-terminal polyhistidine and DsRed monomer fusion (pET32a); chain copies: 2; label: CyDye5-dUTP incorporated in the synthesized complementary strand; 3' TTTTT single-stranded linker to array surface; dsDNA, one strand shown
T1 sequence: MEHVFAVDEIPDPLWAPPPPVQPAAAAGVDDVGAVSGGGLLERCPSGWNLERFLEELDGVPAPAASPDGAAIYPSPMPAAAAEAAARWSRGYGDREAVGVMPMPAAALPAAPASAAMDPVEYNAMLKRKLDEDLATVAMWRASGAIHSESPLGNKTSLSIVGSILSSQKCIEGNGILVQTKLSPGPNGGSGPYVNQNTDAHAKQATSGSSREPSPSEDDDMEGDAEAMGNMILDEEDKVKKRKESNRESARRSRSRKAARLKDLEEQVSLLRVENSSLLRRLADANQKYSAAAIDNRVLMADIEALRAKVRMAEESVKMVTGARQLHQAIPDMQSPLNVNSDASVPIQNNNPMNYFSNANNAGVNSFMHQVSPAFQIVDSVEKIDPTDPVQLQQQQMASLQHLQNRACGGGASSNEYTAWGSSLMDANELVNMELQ
Outline: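 Transcription factors were made in E. coli BL21-CodonPlus as N-terminal fusions to a polyhistidine tag and DsRed, then purified on Ni–NTA. After primer extension with Cy5-dUTP and blocking with 2% BSA, a custom Agilent array was exposed for 1 h at 25 °C to 200 nM protein in PBS, 2% BSA, salmon testes DNA and 50 µM zinc acetate. Washed arrays were scanned on an Axon 4000B, and the binding signal is per-feature fluorescence intensity in arbitrary units.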

Row | Sequence | binding signal
1 | CGTGCAGCCGTTGACATGTGGTCCATGCTATTCGCAAATGCGGAGTCACCTAGTGCAG | 3270 fluorescence intensity (a.u.)
2 | CCGAGCGCTGGCCGCTGACGCGTCCCCGCGTCCCGACCGTCGGAGTCACCTAGTGCAG | 9400 fluorescence intensity (a.u.)
3 | TGTCCTCGAACACGGGGCGCTCACTCTCTCTCTCTCTCTCCGGAGTCACCTAGTGCAG | 3500 fluorescence intensity (a.u.)
4 | GGCGGAGGGAGTGCTCGACGCGTGGAGCTGACGTGCCAACCGGAGTCACCTAGTGCAG | 15800 fluorescence intensity (a.u.)
5 | ACATCCGCGTGCGCGTGGGTATGCCATGTCGATATGTAACCGGAGTCACCTAGTGCAG | 3720 fluorescence intensity (a.u.)
6 | CCGACCGAGACAGTGCTGCCTCGTCGGCTTCCTCTCGCCGCGGAGTCACCTAGTGCAG | 3410 fluorescence intensity (a.u.)
7 | TACATTATATTCAATTCTAACTTTCGGAAATATTATATAGCGGAGTCACCTAGTGCAG | 26900 fluorescence intensity (a.u.)
8 | CCTGCCACCGTGCCACCGCCTCTCCGTCCCCATCACCCTCCGGAGTCACCTAGTGCAG | 3230 fluorescence intensity (a.u.)
9 | TGTATTTGTCGGCTTGCATCGTCACGGTCTCTGTCACCTCCGGAGTCACCTAGTGCAG | 10500 fluorescence intensity (a.u.)
10 | GAATGAAAACTCAGGGGTAAGTAGGAGATGACGCAAAGTTCGGAGTCACCTAGTGCAG | 3580 fluorescence intensity (a.u.)
11 | CGGTGGCGGCGGCGGCAGCATCCTGAGCGACGCGCTGGTGCGGAGTCACCTAGTGCAG | 30100 fluorescence intensity (a.u.)
12 | CACGAGGGACGCCCAATCCTCCGTGTCCGTTGGCTCAACTCGGAGTCACCTAGTGCAG | 3780 fluorescence intensity (a.u.)
13 | ACATCCGCGTTGTGATTTGGGTTGAGCGCACTACTCCACGCGGAGTCACCTAGTGCAG | 3360 fluorescence intensity (a.u.)
14 | AGACCTAGATGGGCATCGATTTCAAGTCAATGTCGTCCCACGGAGTCACCTAGTGCAG | 5720 fluorescence intensity (a.u.)
15 | TTCCATGACACGGCATGGATCGAGCTTTCTACAGTAGCTACGGAGTCACCTAGTGCAG | 3730 fluorescence intensity (a.u.)
16 | CAGACGGCGGTGCGCGGTCGACCCGCCGTCTGCCACGTCACGGAGTCACCTAGTGCAG | 36300 fluorescence intensity (a.u.)
17 | GTGACACAACAAGTCGGATCAGCAACCGCCTCCCTCACCCCGGAGTCACCTAGTGCAG | 11200 fluorescence intensity (a.u.)
18 | CGCACTCAGGTTCCATGATACCTCCACGTGGCCGCGGAGTCGGAGTCACCTAGTGCAG | 15500 fluorescence intensity (a.u.)
19 | GTTCGGGGCGTGACAATATGTTAGGGTGTGACAGTTAGTTCGGAGTCACCTAGTGCAG | 3300 fluorescence intensity (a.u.)
20 | TGCTACTGCGCTATCATGACTGTACTGAAGCCCGGCAGCCCGGAGTCACCTAGTGCAG | 5820 fluorescence intensity (a.u.)
21 | AGTGTCAGTACACACACTAGCTTCTCTCACCGGCTCTCCGCGGAGTCACCTAGTGCAG | 3210 fluorescence intensity (a.u.)

Row | Sequence | binding signal
22 | CAGCACACGGAGCTCCACACCACTCTAGCCAAACTATCAACGGAGTCACCTAGTGCAG | 26100 fluorescence intensity (a.u.)
23 | GCCACGCTATTTAGCGCTGAGGTGTCTAAGTTCAGCACCACGGAGTCACCTAGTGCAG | 3800 fluorescence intensity (a.u.)
24 | CACCAGCACATAAACACAAACCCACAGAAGACATTGCATTCGGAGTCACCTAGTGCAG | 5420 fluorescence intensity (a.u.)
25 | GTTCGTTGTTGCCACGTGCCACGGCCCGGCCCGGCCCATGCGGAGTCACCTAGTGCAG | 11000 fluorescence intensity (a.u.)
26 | AATTGTTTATTACGACTGTTGTGACTGTGCTTTACACCCCCGGAGTCACCTAGTGCAG | 4580 fluorescence intensity (a.u.)
27 | ATTAGGGGATTGCTGACCGTGTTTGTCTTGGGTTGTTGCCCGGAGTCACCTAGTGCAG | 4770 fluorescence intensity (a.u.)
28 | AAATCACGTCATTGTATTGTGTTTTGAAGCTTGTTTGATCCGGAGTCACCTAGTGCAG | 3250 fluorescence intensity (a.u.)
29 | CGGCGGCGGCGGCATTGGTCTGCGTCGCCGTGGTGAATTCCGGAGTCACCTAGTGCAG | 3630 fluorescence intensity (a.u.)
30 | ATTGGAGTCTGCTCCACGCCACATGGATCCTATAAATTCCCGGAGTCACCTAGTGCAG | 3360 fluorescence intensity (a.u.)
31 | CGGTCCCTAAACTTGTAGGGCTATGTCATCTAGGTCCCAACGGAGTCACCTAGTGCAG | 3380 fluorescence intensity (a.u.)
32 | AAGCACACCACGAGCGCCCCACGTGGTCAGTGGTCGGCCTCGGAGTCACCTAGTGCAG | 6610 fluorescence intensity (a.u.)
33 | AGGAGAGTGGTGGAGGAGAGGAAGAATAGAAATGCCACTTCGGAGTCACCTAGTGCAG | 3600 fluorescence intensity (a.u.)
34 | TCTTGTGCTGAAGTGTCATGGATGACGTACTCCACAACTACGGAGTCACCTAGTGCAG | 9340 fluorescence intensity (a.u.)
35 | GATGGGTATACTAGAGGGGAGGAGGAGGAGGACGAGGACACGGAGTCACCTAGTGCAG | 3210 fluorescence intensity (a.u.)
36 | ATTAGGACCCAACTTGAATGTTATGAATGACTGTTCACTGCGGAGTCACCTAGTGCAG | 4430 fluorescence intensity (a.u.)
37 | CCATATATATACTGACATTCAATACTTACAACGTGTCCGACGGAGTCACCTAGTGCAG | 3210 fluorescence intensity (a.u.)
38 | CGCCACTTGGCGGTTTAGGAGCGTTTGTAGGAAGTTTCATCGGAGTCACCTAGTGCAG | 3210 fluorescence intensity (a.u.)
39 | CTTCTGGCCCGAAAGATATTTGCTGACTCAAGTACCTCAGCGGAGTCACCTAGTGCAG | 10300 fluorescence intensity (a.u.)
40 | TGAATTCGTAGCCTGCACGTGATGCACAGCGTGCTGAAGACGGAGTCACCTAGTGCAG | 3190 fluorescence intensity (a.u.)
41 | ACAAGTACTTAATGATTAAAATGTGCATGTGCCGAGTATACGGAGTCACCTAGTGCAG | 37300 fluorescence intensity (a.u.)
42 | ACCGTTTGCATGGATGCATGAGAAACAGCTCATCCCTATTCGGAGTCACCTAGTGCAG | 3930 fluorescence intensity (a.u.)

Another view of some results above:
Row,Sequence,binding signal
23,GCCACGCTATTTAGCGCTGAGGTGTCTAAGTTCAGCACCACGGAGTCACCTAGTGCAG,3800 fluorescence intensity (a.u.)
24,CACCAGCACATAAACACAAACCCACAGAAGACATTGCATTCGGAGTCACCTAGTGCAG,5420 fluorescence intensity (a.u.)

A few values from the list.
binding signal with CAGCACACGGAGCTCCACACCACTCTAGCCAAACTATCAACGGAGTCACCTAGTGCAG is entered as 26100 fluorescence intensity (a.u.)
binding signal with ATTAGGGGATTGCTGACCGTGTTTGTCTTGGGTTGTTGCCCGGAGTCACCTAGTGCAG is entered as 4770 fluorescence intensity (a.u.)

From article PMC7819943, “Rice protein-binding microarrays: a tool to detect cis-acting elements near promoter regions in rice”
